Results deposited as PubChem BioAssay AID743448 (Peter MacCallum Cancer Centre, 2014).
Screen: 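Find knock-downs giving vorinostat-specific cell death in several colon cancer lines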 (follow-up of hits). Cells: four human colon cancer cell lines: HCT116-VR (vorinostat-resistant HCT116 derivative), SW480, SW620 and LIM1215. Knock-down reagent: siRNA pool against human genes, 40 nM siRNA pool. Duration: drug added two days after transfection, read one day later. Conditions: vorinostat 2.5 µM on one half of each plate, etoposide 5 µM on the other half. Cell line and drug panel: SW620 cells with etoposide. Read-out: 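Caspase luminescence and viability fluorescence, each expressed relative to mock transfection and also as robust z-scores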. Direction: caspase ratio to mock: higher = more caspase activity than mock; viability ratio to mock: higher = more live cells than mock; caspase robust z-score: higher = more caspase activity, more apoptosis; viability robust z-score: higher = more live cells. Rule for the call: 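Hit means caspase ratio to mock at least 1.6, or viability ratio to mock at most 0.75; wells with strong death in the absence of drug get no call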. Meaning of the calls: active = caspase or viability hit in this panel; inactive = no change, or unhealthy well.
Shown is a random part of the 106 reagents, in one setting of the screen. 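Calls are per line and drug panel including etoposide, not vorinostat-specific; gene picks needed hits in two or more extra lines with vorinostat versus etoposide.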 Unmarked entries are inactive.

gene	caspase ratio to mock	viability ratio to mock	caspase robust z-score	viability robust z-score
EIF2B5 (GeneID 8893)	1.07	0.77	-0.19	-1.23
DNTTIP2 (GeneID 30836)	0.7	0.84	-1.06	-0.53
IRX2-DT (GeneID 153571)	1.3	0.92	0.36	0.3
UTP3 (GeneID 57050)	0.84	0.94	-0.71	0.46
BEGAIN (GeneID 57596)	1.16	0.95	0	0.57
C1orf210 (GeneID 149466)	2.72 (active)	0.7	3.68	-1.88
PSMA7 (GeneID 5688)	1.52	0.82	0.88	-0.7
MTF2 (GeneID 22823)	1.5	0.81	0.79	-0.8
POLR2G (GeneID 5436)	1.59	0.84	0.98	-0.44
CAPN12 (GeneID 147968)	0.74	0.77	-0.99	-1.22
MAGOH (GeneID 4116)	1.27	0.99	0.25	0.98
NUP58 (GeneID 9818)	0.74	0.9	-0.96	0.14
GPER1 (GeneID 2852)	1.4 (active)	0.72	0.55	-1.64
RWDD2A (GeneID 112611)	1.19	0.9	0.06	0.15
VPS4A (GeneID 27183)	1.93 (active)	0.74	1.72	-1.56
FLII (GeneID 2314)	2.15 (active)	0.97	2.35	0.8
VAX1 (GeneID 11023)	1.01	0.96	-0.36	0.74
DDX18 (GeneID 8886)	0.43 (active)	0.74	-1.71	-1.6
GLI1 (GeneID 2735)	1.05	0.9	-0.28	0.16
RNF186 (GeneID 54546)	0.45	0.96	-1.66	0.74
NPC1L1 (GeneID 29881)	1.29	0.97	0.25	0.84
LRP3 (GeneID 4037)	0.88	0.84	-0.69	-0.46
RGS18 (GeneID 64407)	0.77	1.09	-0.94	2.03
ANKRD13C-DT (GeneID 11147)	0.97	0.86	-0.46	-0.3
EIF2B2 (GeneID 8892)	1.24 (active)	0.65	0.19	-2.49
HPCAL1 (GeneID 3241)	0.98	0.89	-0.43	-0.01
THOC5 (GeneID 8563)	1.2	0.83	0.06	-0.58
PRRT3 (GeneID 285368)	0.8	0.88	-0.86	-0.14
PUF60 (GeneID 22827)	1.22	0.87	0.14	-0.18
LCE2A (GeneID 353139)	2.58 (active)	0.96	3.24	0.69
POLR2J (GeneID 5439)	1.36	0.9	0.44	0.12
TDP2 (GeneID 51567)	1.07	0.86	-0.22	-0.29
SAP130 (GeneID 79595)	0.76	0.95	-0.94	0.62
CBX7 (GeneID 23492)	2.09 (active)	0.96	2.11	0.68
FANCA (GeneID 2175)	1.58	0.98	1	0.86
EIF4A1 (GeneID 1973)	0.74 (active)	0.72	-0.98	-1.74
SLU7 (GeneID 10569)	1.31 (active)	0.66	0.34	-2.29
OR2W5 (GeneID 441932)	1.04	0.98	-0.3	0.89
TBC1D20 (GeneID 128637)	2.14 (active)	0.86	2.31	-0.36
OSBPL6 (GeneID 114880)	1.32	1.02	0.33	1.38
DPPA5 (GeneID 340168)	1.31	0.88	0.36	-0.16
POLR2D (GeneID 5433)	1.58	0.87	1.02	-0.18
EIF3I (GeneID 8668)	0.48 (active)	0.5	-1.6	-4.04
TFAP2D (GeneID 83741)	1.06	1.14	-0.26	2.5
GATA1 (GeneID 2623)	1.69 (active)	0.73	1.19	-1.6
NUP205 (GeneID 23165)	1.5 (active)	0.75	0.79	-1.45
PSMD4 (GeneID 5710)	0.82	0.92	-0.8	0.28
MED28 (GeneID 80306)	1.08	0.87	-0.16	-0.22
NUP62 (GeneID 23636)	0.87	0.92	-0.66	0.34
RLN3 (GeneID 117579)	1.38	0.94	0.52	0.56

Taken from above:
Result of POLR2D (GeneID 5433) under “caspase robust z-score”: 1.02
NUP62 (GeneID 23636), viability robust z-score = 0.34
